PMC6368584
No constants are given. Whether binding was seen depends on the method and setting. In cells and extracts the contact can be indirect. Some entries that bind do so weakly or less than the wild type.

Amino acid sequences for entries named in this document (tags omitted).
UniProt Q92769: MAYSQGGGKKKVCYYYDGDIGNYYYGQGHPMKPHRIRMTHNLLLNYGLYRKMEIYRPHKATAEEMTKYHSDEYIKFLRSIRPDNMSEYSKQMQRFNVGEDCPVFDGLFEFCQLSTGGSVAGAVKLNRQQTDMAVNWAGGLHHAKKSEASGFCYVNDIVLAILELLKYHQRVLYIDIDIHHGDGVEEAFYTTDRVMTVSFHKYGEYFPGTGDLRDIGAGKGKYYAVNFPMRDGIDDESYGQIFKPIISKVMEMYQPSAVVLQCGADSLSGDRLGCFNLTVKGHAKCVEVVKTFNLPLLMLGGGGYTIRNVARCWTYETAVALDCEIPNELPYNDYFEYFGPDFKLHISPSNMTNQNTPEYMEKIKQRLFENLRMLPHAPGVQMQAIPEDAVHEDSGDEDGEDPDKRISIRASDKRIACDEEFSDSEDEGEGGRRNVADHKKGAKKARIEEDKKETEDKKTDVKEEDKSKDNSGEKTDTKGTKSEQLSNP
UniProt Q09472: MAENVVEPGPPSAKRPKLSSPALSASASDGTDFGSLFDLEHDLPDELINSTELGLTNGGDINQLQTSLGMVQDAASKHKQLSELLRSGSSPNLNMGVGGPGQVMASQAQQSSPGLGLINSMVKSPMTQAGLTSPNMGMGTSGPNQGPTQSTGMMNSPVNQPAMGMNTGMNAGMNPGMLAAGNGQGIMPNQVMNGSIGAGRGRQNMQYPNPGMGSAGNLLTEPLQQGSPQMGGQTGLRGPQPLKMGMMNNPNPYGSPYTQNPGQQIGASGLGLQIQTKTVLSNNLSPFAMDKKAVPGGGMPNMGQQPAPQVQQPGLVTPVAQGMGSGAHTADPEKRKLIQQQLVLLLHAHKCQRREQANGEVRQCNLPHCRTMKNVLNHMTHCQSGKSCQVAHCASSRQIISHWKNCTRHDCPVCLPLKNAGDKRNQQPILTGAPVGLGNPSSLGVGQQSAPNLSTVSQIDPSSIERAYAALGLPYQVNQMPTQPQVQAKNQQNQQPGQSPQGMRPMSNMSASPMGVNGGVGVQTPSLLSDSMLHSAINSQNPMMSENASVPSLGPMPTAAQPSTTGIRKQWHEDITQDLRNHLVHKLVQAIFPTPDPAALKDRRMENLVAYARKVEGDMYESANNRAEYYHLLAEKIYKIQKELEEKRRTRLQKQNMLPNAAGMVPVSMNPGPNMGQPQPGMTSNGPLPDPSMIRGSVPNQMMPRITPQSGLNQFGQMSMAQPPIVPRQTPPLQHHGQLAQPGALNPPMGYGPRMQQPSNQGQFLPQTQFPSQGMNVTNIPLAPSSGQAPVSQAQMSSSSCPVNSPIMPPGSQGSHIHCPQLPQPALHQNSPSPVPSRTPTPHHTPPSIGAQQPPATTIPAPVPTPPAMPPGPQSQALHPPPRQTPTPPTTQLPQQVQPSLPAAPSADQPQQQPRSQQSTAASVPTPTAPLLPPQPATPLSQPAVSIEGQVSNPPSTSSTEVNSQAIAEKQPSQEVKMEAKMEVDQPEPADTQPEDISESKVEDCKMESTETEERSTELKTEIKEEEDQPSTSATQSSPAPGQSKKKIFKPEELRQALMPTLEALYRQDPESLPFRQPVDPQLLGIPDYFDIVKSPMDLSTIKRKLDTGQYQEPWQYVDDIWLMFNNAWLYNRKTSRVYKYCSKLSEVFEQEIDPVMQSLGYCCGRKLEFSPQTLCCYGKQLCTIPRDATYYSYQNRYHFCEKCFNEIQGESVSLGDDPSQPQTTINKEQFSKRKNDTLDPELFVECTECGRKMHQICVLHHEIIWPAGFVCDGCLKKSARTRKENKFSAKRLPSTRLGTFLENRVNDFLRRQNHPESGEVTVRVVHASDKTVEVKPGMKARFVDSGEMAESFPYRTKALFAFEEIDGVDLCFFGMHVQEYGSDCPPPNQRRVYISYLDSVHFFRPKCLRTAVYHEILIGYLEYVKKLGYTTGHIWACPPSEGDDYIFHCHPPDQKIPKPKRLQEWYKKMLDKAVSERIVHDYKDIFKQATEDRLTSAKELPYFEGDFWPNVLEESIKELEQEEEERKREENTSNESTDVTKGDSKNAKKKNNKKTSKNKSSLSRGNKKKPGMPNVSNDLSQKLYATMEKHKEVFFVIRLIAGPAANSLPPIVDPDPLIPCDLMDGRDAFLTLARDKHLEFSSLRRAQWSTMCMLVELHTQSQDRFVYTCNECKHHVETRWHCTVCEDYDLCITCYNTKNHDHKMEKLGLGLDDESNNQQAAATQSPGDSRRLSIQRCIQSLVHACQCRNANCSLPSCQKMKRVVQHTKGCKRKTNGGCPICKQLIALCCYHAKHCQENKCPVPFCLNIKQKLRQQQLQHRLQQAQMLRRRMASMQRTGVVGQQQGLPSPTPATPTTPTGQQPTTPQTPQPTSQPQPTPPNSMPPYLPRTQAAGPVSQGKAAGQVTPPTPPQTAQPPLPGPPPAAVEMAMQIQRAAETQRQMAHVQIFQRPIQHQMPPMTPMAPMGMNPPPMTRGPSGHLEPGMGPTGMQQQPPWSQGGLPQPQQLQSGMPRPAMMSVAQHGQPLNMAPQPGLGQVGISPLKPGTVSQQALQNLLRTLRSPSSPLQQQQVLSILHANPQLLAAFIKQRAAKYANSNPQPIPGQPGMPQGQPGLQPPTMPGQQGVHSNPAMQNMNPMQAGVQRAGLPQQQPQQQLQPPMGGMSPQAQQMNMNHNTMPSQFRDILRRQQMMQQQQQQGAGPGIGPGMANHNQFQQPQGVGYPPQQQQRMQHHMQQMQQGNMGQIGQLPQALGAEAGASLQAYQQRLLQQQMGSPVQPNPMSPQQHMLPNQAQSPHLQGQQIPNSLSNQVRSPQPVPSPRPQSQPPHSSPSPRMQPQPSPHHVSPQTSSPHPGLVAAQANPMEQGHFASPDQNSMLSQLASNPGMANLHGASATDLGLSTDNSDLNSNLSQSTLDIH
UniProt P25490: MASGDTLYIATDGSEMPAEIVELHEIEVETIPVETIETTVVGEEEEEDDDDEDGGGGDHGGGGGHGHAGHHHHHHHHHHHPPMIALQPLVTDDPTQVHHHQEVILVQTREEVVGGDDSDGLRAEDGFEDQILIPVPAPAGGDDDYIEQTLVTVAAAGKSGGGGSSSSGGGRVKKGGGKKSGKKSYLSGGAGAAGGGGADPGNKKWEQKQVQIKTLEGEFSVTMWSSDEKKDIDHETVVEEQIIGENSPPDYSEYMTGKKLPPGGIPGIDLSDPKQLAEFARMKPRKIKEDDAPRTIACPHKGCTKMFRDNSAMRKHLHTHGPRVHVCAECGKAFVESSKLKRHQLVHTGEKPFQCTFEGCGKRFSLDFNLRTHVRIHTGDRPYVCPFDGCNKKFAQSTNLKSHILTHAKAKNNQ

Experiments:
[1] = target: HDAC2 (from transfected pENTER-HDAC2 plasmid) (UniProt Q92769); assay: co-IP; lysates of CRC cells transfected with tagged constructs (HA-p300; HDAC2 plasmid); 3 µg antibody (anti-HA or anti-HDAC2) 3 h at 4 °C, protein A/G-agarose beads; Western blot; normal mouse IgG as control
HA-tagged p300 = HA-tagged p300 (UniProt Q09472); assay: as above
[2] = target: HDAC2 (endogenous) (human (endogenous in CRC cell lines)) (UniProt Q92769); assay: co-IP; endogenous proteins, whole lysates of untransfected CRC cells; 3 µg anti-p300 or anti-HDAC2 antibody 3 h at 4 °C, protein A/G-agarose beads; Western blot; normal mouse IgG as control
[3] = target: p300 (endogenous) (human (endogenous in CRC cell lines)) (UniProt Q09472); assay: as above

Measured: binding

YY1 (endogenous) (from UniProt P25490 1-414)
binds: [1] | HA-tagged p300 | [2] | [3]
